From patent US20260021181A1, “CHIMERIC COSTIMULATORY RECEPTORS, CHEMOKINE RECEPTORS, AND THE USE OF SAME IN CELLULAR IMMUNOTHERAPIES” (Iovance Biotherapeutics, Inc., priority 2022, published 2026) come the findings set out here.

The chains behind the UniProt entries cited, without tags or fusion partners.
UniProt Q9NZQ7: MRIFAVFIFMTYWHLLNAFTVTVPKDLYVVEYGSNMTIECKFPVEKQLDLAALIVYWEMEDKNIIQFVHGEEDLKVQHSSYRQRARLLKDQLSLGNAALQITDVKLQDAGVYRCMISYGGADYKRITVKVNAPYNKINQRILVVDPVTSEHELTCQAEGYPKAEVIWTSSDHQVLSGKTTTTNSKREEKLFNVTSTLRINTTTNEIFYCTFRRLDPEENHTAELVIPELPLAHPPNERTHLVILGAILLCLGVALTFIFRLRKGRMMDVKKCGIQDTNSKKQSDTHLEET

This assay has as its target biotin conjugated PD-L1 protein (UniProt Q9NZQ7). Kind of assay: transduced HEK-IL-18 reporter cells stained with biotinylated antigen and fluorescent streptavidin.

No constants are given. Whether binding was seen depends on the method and setting. Some entries that bind do so weakly or less than the wild type.

B1: biepitope CCR8 (38A1scFv-CD28TM-IL-18R1-T2A-19H9scFv-CD28TM-IL-18RAP) (receptor)
chain 1: SYVLTQPPSVSVAPGQTARITCGGNNIGRKIVHWYQQRPGQAPVLVIYYDTDRPAGIPERFSGSNSGNMATLTISTVGAGDEADYYCQVWDTGSDHVVFGGGTKLTVLGGGGSGGGGSGGGGSGGGGSEVQLVESGGGLVQPGGSLRLSCAASGFTFSNYAMSWVRQAPGKGLEWVSTISGSGGTTYYADSVKGRFTISRDNSKNTLYLQMNSLRVEDTAVYYCAKDWFRSSSPDAFDIWGQGTTVTVSAIEVMYPPPYLDNEKSNGTIIHVKGKHLCPSPLFPGPSKPFWVLVVVGGVLACYSLLVTVAFIIFWVYRVDLVLFYRHLTRRDETLTDGKTYDAFVSYLKECRPENGEEHTFAVEILPRVLEKHFGYKLCIFERDVVPGGAVVDEIHSLIEKSRRLIIVLSKSYMSNEVRYELESGLHEALVERKIKIILIEFTPVTDFTFLPQSLKLLKSHRVLKWKADKSLSYNSRFWKNLLYLMPAKTVKPGRDEPEVLPVLSESGSGEGRGSLLTCGDVEENPG
chain 2: NFMLTQPHSVSESLGKTVTISCTGSSGSIARKFVQWYQQRPGSSPTTVIYENNQRPSGVSDRFSGSIGSSSNSASLTISGLKTEDEADYYCQSYDSSNVVFGGGTKVTVLGGGGSGGGGSGGGGSGGGGSQVQLQESGGGLVKPGGSLRLSCAASGFTFSSYSMNWVRQAPGKGLEWVSGINTAGDTHYPESVKGRFTISRDNARNSLNLQMNSLRAEDTAVYYCVRERVEREYSGYDAFDIWGQGTTVTVSAIEVMYPPPYLDNEKSNGTIIHVKGKHLCPSPLFPGPSKPFWVLVVVGGVLACYSLLVTVAFIIFWVSALLYRHWIEIVLLYRTYQSKDQTLGDKKDFDAFVSYAKWSSFPSEATSSLSEEHLALSLFPDVLENKYGYSLCLLERDVAPGGVYAEDIVSIIKRSRRGIFILSPNYVNGPSIFELQAAVNLALDDQTLKLILIKFCYFQEPESLPHLVKKALRVLPTVTWRGLKSVPPNSRFWAKMRYHMPVKNSQGFTWNQLRITSRIFQWKGLSRTETTGRSSQPKEW
As to B1, the binding result was “binds”.
